From patent publication US20250136702A1, “HUMAN LIFR ANTIGEN BINDING PROTEIN, PREPARATION METHOD THEREFOR, AND APPLICATION THEREOF” (NONA BIOSCIENCES (SUZHOU) CO., LTD., priority 2020, published 2025)

Experiments:
[1] = target: human LIFR-ECD protein (human); test: ELISA on plate-coated human LIFR-ECD (1 ug/mL), anti-human IgG Fc-HRP, OD450nm against mAb concentration in nM
[2] = target: human LIFR-ECD protein (human); test: ELISA
[3] = target: monkey LIFR-ECD protein (monkey); test: ELISA
[4] = target: monkey LIFR-ECD protein (monkey); test: ELISA on plate-coated monkey LIFR-ECD (1 ug/mL), anti-human IgG Fc-HRP, OD450nm against mAb concentration in nM

binding [1] | binding [2] | binding [3] | binding [4] | Binder
binds | binds | binds | binds | PR301127 (antibody, human IgG1, kappa, V domains shown) VH: EVQLLQSGGGLVQPGGSLRLSCAASGFTFSNYAMTWVRQAPGKGLEWVSTISGSGAFTYYADAVKGRFTISRVNSKNSLDLQMNSLRAEDTAVYYCAKGGILTGFDNWGQGTLVTVSS VL: DIQMTQSPSTLSASVGDRVTITCRASQSISSWLAWYQQKPGKAPKLLIYKASSLESGVPSRFSGSGSGTEFSFTISSLQPDDFATYYCQQYKSFSPGGLTFGGGTKVEIKR
binds | binds | binds | binds | PR301177 (antibody, human IgG1, kappa, V domains shown) VH: QVQLVESGGGVVQPGRSLRLSCVASGFTFSSYGMNWVRQAPGKGLDWVTVIWFDGSNKYYADSVKGRFTISRDNSKNTLYLQMNSLRAEDTAMYYCARGERTLDLWGQGTLVTVSS VL: DIQMTQSPSTLSASVGDRVTITCRASQSISSWLAWYQQKPGKAPKLLIYKASSLESGVPSRFSGSGSGTEFSFTISSLQPDDFATYYCQQYKSFSPGGLTFGGGTKVEIKR
binds | binds | binds | binds | PR301195 (antibody, human IgG1, kappa, V domains shown) VH: QVQLVESGGGVVQPGRSLRLSCAASGFTFSSYGMNWVRQAPGKGLEWVAVIWFDGSIKYYADSVKGRFTISRDNSKNTLYLQMNSLRAEDTAIYYCARGQLVQDFWGRGTLVTVSS VL: DIQMTQSPSTLSASVGDRVTITCRASQSISSWLAWYQQKPGKAPNLLMYKASNLESGVPSRFSGSGSGTEFTLTITSLQPDDFASYYCQQYKSNPLTFGGGTKVEIKR
binds | binds | binds | binds | PR301218 (antibody, human IgG1, kappa, V domains shown) VH: QVQLVESGGGVVQPGRSLRLSCAASGFTFSSYGMHWVRQAPGKGLEWVAVIWFDGSVKYYADSVKGRFTISRDNSKNTLYLQMNSLRAEDTAIYYCARGQLVQDFWGRGTLVTVSS VL: DIQMTQSPSTLSASVGDRVTITCRASQSISSWLAWYQQKPGKAPNLLMYKASNLESGVPSRFSGSGSGTEFTLTITSLQPDDFASYYCQQYKSNPLTFGGGTKVEIKR
binds | binds | binds | binds | PR301196 (antibody, human IgG1, kappa, V domains shown) VH: QVQLVESGGGVVQPGRSLRLSCAASGFTFSSYGMNWVRQAPGKGLEWVAVIWFDGSIKYYADSVKGRFTISRDNSKNTLYLQMNSLRAEDTAIYYCARGQLVQDFWGRGTLVTVSS VL: DIQMTQSPSTLSASVGDRVTITCRASQSISSWLAWYQQKPGKAPNLLMYKASNLENGVSSRFSGSGSGTEFTLTITSLQPDDFATYYCQQYKSNPLTFGGGTKVEIKR
binds | binds | binds | binds | PR301211 (antibody, human IgG1, kappa, V domains shown) VH: QVQLVESGGGVVQPGRSLRLSCAASGFTFSSYGMHWVRQAPGKGLEWVAVIWFDGSLKYYADSVKGRFAISRDNSKNTLYLQMNSLRAEDTAIFYCARGQLVQDLWGRGTLVTVSS VL: DIQMTQSPSTLSASVGDRVTITCRASQSISSWLAWYQQKPGKAPNLLMYKASNLESGVPSRFSGSGSGTEFTLTITSLQPDDFASYYCQQYKSNPLTFGGGTKVEIKR
binds | binds | binds | binds | PR301215 (antibody, human IgG1, kappa, V domains shown) VH: QVQLVESGGGVVQPGRSLRLSCAASGFTFSSYGMHWVRQAPGKGLEWVAVIWFDGSIKYYADSVKGRFTISRDNSKNTLYLQMNSLRAEDTAIYYCARGQLVQDFWGRGTLVTVSS VL: DIQMTQSPSTLSASVGDRVTITCRASQSISSWLAWYQQKPGKAPNLLMYKASNLESGVPSRFSGSGSGTEFTLTITSLQPDDFASYYCQQYKSNPLTFGGGTKVEIKR
binds | binds | binds | binds | PR301172 (antibody, human IgG1, kappa, V domains shown) VH: EVQLLESGGGLVQPGGSLRLSCATSGFTFSNYAMTWVRQAPGKGLEWVVISGSGFLTYYADAVKGRFTISRVNSKNSLYLQMNSLRAEDTAVYYCTKGGILTGFDYWGQGTLVTVSS VL: KIVMTQSPATLSVSPGERATLSCRASQNLNSNLAWYQQTPGQAPRLLIYGASTRAPGIPARFSGSGSGTEFTLTISSLQSEDFVVYFCQQYNNWPRTFGQGTKVEIKR

These are yes or no findings as the source states them, for the method shown. A result given as binding can be weak or reduced; the word gives no strength.
